Source: PubChem BioAssay AID743454 (Peter MacCallum Cancer Centre, 2014)

Test: 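Search for knock-downs that restore vorinostat killing in resistant colon cancer cells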 (primary screen)
Cell system: human HCT116-VR colon cancer cells, selected for vorinostat resistance
Knock-down reagent: siRNA pool against human genes, 40 nM siRNA pool
Duration: vorinostat for 24 h, read-out about 72 h after transfection
Treatment: vorinostat at 2.5 µM final
Measurement: 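Two measures, CellTiter-Fluor viability and luminescent caspase 3/7 activity, each as fold change against same-plate mock wells, mean of duplicates, then screen-wide robust z-score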
Direction: viability robust z-score: higher = more viable cells than screen typical; caspase robust z-score: higher = more caspase 3/7 activity than screen typical
Call rule: 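Hits are knock-downs in viability class RV1/RV2 or caspase class CA1/CA2, excluding ones that killed cells in the no-drug cell-count arm; hits then retested with single siRNAs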
The whole screen tested about 18,000 reagents; this is a part drawn at random. Over the whole deposit, 450 (2.5%) were called active. 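Single biological run; no consistent viability z cut-off exists, so the class columns, not z-scores, define the calls.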 A number with no mark means an inactive call.

The first 2 records as a preview:
target gene	viability hit class	caspase hit class	viability robust z-score	caspase robust z-score
CPLX2	no change	no change	0.52	-1.08
WDR26	no change	no change	-1.14	0.52

The listing, repeating the preview:
target gene	viability hit class	caspase hit class	viability robust z-score	caspase robust z-score
CPLX2	no change	no change	0.52	-1.08
WDR26	no change	no change	-1.14	0.52
PRIM1	no change	no change	1.4	-0.51
P4HB	no change	no change	0.18	0.72
ELP5	no change	no change	-0.76	-0.6
LYZL1	no change	no change	0.57	-0.48
THAP6	no change	no change	-0.08	-1.02
MRPS22	no change	no change	1.37	-0.84
VPS29	no change	no change	-0.76	-0.24
IQCF1	no change	no change	-0.2	-0.13
AUP1	no change	no change	0.93	-0.94
CDCA4	no change	no change	0.42	0.16
ARPC2	no change	no change	0.02	-0.31
SPAG11A	no change	no change	-0.28	0.44
LGALS9B	no change	no change	-0.02	-1.12
BAZ2B	no change	no change	0.6	0.05
KCNQ3	no change	no change	-1.34	2.95
PPM1N	no change	no change	-1	0.41
RIMBP2	no change	no change	2.11	-0.13
WDR45B	no change	no change	0.09	-0.56
TOMM20L	no change	no change	0.34	-0.2
ATP6V0D2	no change	no change	-0.52	1.31
HLA-DRB4	no change	no change	1.3	0.28
CAPZA3	no change	no change	0.41	-0.02
ASXL1	no change	no change	0.29	-1.02
DNAH3	no change	no change	0.68	-0.84
JKAMP	no change	no change	0.21	-0.32
SRD5A2	no change	no change	-2.51	2.94
RCSD1	no change	no change	-0.81	-0.66
FHIP2B	no change	no change	-0.05	-0.57
SMARCA2	no change	no change	0.45	4.22
PSMB4	no change	no change	-4.45	1.18
PLA2G1B	no change	no change	-0.46	0.32
NKX6-1	no change	no change	1.44	-0.1
SCIN	no change	no change	-0.1	0.38
CCNQ	no change	no change	0.48	-0.2
KRTAP5-3	no change	no change	0.84	0.56
SLC37A1	no change	no change	1.27	2.34
VPS37A	no change	no change	0.62	-0.24
CHMP2A	no change	no change	-0.89	2.29
PIK3R3	no change	no change	0.4	-0.5
MTMR6	no change	no change	1.72	0.23
ZNF181	no change	no change	-0.26	-0.62
NAPEPLD	no change	no change	1.45	-0.45
H2AC6	no change	no change	0.02	0.97
MRPS34	no change	no change	1.54	0
EEF1AKMT3	no change	no change	-0.68	4.57
BPI	no change	no change	-0.07	1.53
PRDM9	no change	no change	-0.85	0.82
RSPO3	no change	no change	-0.12	-0.26
PARVG	no change	no change	-1.21	-0.61
PPFIA4	no change	no change	1.09	0.94
OSTN	no change	no change	-0.37	1.57
CTSE	no change	no change	-0.82	0.99
STRC	no change	no change	0.09	1.66
ATP2B2	no change	no change	-1.82	1.81
UQCC2	no change	no change	0.82	0.31
LPIN3	no change	no change	0.68	-0.62
PRKAG3	no change	no change	-2.96	-0.16
MRPL19	no change (active)	CA2 (caspase activation)	-0.35	5.3
KRTAP6-3	no change	no change	0.14	1.15
PEAK3	no change	no change	0.33	1.21
LMLN	no change	no change	0.51	-0.02
TIPIN	no change	no change	0.6	-1.08
ATMIN	no change	no change	-0.37	-1.51
PAPLN	no change	no change	0.38	-1.02
SLC28A2	no change	no change	-0.71	-0.53
SH3BP1	no change	no change	0.49	0.44
ORM2	no change	no change	0.42	0.18
GPC5	no change	no change	0.69	-0.18
KRT75	no change	no change	0.38	0
HMGA1	no change	no change	0.3	2.82
DGKA	no change	no change	0.78	-0.5
